The target in this assay is Bcl-2 associated athanogene (BAG-1) S, wild type (human). The assay can be described thus: co-IP; H1299 cells co-transfected with p73α and wild type or mutant BAG-1S plasmids; lysate in HMKEN buffer (10 mM HEPES pH 7.2, 5 mM MgCl2, 142 mM KCl, 2 mM EGTA, 0.2% IGEPAL); BAG-1 immunoprecipitated with rabbit polyclonal TB3 (pre-immune serum as control), protein G-Sepharose, 4°C; blots for p73 (R26), BAG-1 (G3E2), HSC70 (B6).

Among the data in article PMC2676555 are binding values, retold here.

These are yes or no findings as the source states them, for the method shown. Binding seen in cells or lysates may run through a third protein. Binding can be weak; no strength is given.

B1: p73α (protein, UniProt O15350-1 1-636)
chain: MAQSTATSPDGGTTFEHLWSSLEPDSTYFDLPQSSRGNNEVVGGTDSSMDVFHLEGMTTSVMAQFNLLSSTMDQMSSRAASASPYTPEHAASVPTHSPYAQPSSTFDTMSPAPVIPSNTDYPGPHHFEVTFQQSSTAKSATWTYSPLLKKLYCQIAKTCPIQIKVSTPPPPGTAIRAMPVYKKAEHVTDVVKRCPNHELGRDFNEGQSAPASHLIRVEGNNLSQYVDDPVTGRQSVVVPYEPPQVGTEFTTILYNFMCNSSCVGGMNRRPILIIITLEMRDGQVLGRRSFEGRICACPGRDRKADEDHYREQQALNESSAKNGAASKRAFKQSPPAVPALGAGVKKRRHGDEDTYYLQVRGRENFEILMKLKESLELMELVPQPLVDSYRQQQQLLQRPSHLQPPSYGPVLSPMNKVHGGMNKLPSVNQLVGQPPPHSSAATPNLGPVGPGMLNNHGHAVPANGEMSSSHSAQSMVSGSHCTPPPPYHADPSLVSFLTGLGCPNCIEYFTSQGLQSIYHLQNLTIEDLGALKIPEQYRMTIWRGLQDLKQGHDYSTAQQLLRSSNAATISIGGSGELQRQRVMEAVHFRVRHTITIPNRGGPGGGPDEWADFGFDLPDCKARKQPIKEEFTEAEIH
Turning to B1, the binding entry is listed as “binds”.
